In PMC12827483 one finds binding data, which are given here for 1 substance.

Sequences of proteins named here, by UniProt entry; tags and fusion partners are left off.
UniProt Q8IX90: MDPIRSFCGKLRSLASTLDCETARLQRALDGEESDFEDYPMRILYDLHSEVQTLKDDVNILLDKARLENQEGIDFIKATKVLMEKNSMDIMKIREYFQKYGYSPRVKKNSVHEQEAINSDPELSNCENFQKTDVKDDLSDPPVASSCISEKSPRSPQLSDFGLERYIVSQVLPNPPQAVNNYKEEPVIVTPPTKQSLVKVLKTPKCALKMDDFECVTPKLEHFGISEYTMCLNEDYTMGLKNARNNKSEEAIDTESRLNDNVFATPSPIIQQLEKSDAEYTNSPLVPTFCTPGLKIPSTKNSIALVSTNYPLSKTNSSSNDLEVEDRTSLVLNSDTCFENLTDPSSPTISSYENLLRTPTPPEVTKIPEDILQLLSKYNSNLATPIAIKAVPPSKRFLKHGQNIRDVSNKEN
UniProt Q9GZT9: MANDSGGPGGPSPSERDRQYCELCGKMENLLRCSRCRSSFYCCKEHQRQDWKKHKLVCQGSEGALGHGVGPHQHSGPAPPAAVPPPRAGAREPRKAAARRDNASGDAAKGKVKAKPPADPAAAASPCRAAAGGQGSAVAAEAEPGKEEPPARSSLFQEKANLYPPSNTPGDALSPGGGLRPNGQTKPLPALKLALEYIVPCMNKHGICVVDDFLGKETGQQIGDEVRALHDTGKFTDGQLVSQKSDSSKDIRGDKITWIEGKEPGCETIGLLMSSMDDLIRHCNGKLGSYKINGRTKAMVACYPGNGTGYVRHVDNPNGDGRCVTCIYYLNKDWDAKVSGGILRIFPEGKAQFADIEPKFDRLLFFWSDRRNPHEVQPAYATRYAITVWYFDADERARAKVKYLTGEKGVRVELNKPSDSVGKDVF

Test [1] addresses Spindle and Kinetochore Associated Protein 3 (SKA3) (human (endogenous in A549)) (UniProt Q8IX90). Nature of the test: co-IP; endogenous proteins in IP lysis buffer lysates of A549 and A549-LMs cells; antibodies against PHD2 or SKA3 overnight at 4 °C, rabbit IgG control, Dynabeads Protein G; also after SKA3 siRNA; MG132 (25 μM) added for HIF-1α.
Test [2] has the same target. Nature of the test: proximity ligation; PLA in A549 cells, control (si-Ctrl) and SKA3 knockdown (si-SKA3); red puncta.

Results are given in words; binding and its absence hold for the method and conditions named. Binding seen in cells or lysates may run through a third protein. Some binding calls cover weakened binding; strength is not graded here.

With “Prolyl Hydroxylase Domain-containing protein 2 (PHD2) (from UniProt Q9GZT9 1-426) (enzyme)”, the binding result in test [1] and in test [2] was “binds” in each case.
